Experimental data published in PMC8842248.
Results are given in words; binding and its absence hold for the method and conditions named. In cells and extracts the contact can be indirect. A yes stands for co-enrichment or nearness to the bait. Other partners may have been found.

Amino acid sequences for entries named in this document (tags omitted).
UniProt P84085: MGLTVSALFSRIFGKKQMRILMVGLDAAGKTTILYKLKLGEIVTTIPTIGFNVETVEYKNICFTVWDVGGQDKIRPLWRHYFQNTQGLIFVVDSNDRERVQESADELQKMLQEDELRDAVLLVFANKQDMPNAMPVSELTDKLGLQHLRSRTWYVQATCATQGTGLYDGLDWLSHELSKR
UniProt P36404: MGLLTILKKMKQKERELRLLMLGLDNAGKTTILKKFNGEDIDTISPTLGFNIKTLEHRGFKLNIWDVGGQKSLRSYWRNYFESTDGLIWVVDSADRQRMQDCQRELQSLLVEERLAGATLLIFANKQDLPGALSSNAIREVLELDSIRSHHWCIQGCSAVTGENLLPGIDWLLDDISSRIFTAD
UniProt P36405: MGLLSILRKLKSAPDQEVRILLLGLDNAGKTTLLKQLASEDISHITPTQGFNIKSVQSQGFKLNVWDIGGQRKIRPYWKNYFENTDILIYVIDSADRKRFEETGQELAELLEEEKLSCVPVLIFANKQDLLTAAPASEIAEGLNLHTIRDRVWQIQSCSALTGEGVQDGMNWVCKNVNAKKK

These substances were tested against PDE6D SPR3 (PDE6D with a double His8-tag, vector pBDDB-SPR3) (UniProt O43924) (assay: affinity purification with mass spectrometry; 20 mg His-tagged PDE6D SPR3 added to HEK293F cells at lysis; nickel column, TEV, reverse nickel, Superdex 75; bands other than PDE6D cut from SDS-PAGE for proteomic mass spectrometry; only the target purified).

binding	Substance
binds	ARF5 (ADP-ribosylation factor 5), endogenous in HEK293F cells (from UniProt P84085 1-180)
binds	ARL2, endogenous in HEK293F cells (from UniProt P36404 1-184)
binds	ARL3, endogenous in HEK293F cells (from UniProt P36405 1-182)
